Results as given in patent US20090118225A1, “1-Methyl Nicotinamide and Derivatives for Treatment of Gastric Injury” (Cortria Corporation, priority 2007, published 2009).

Columns and labels:
[1] = system: ethanol-induced gastric lesions; assay: Ethanol-induced gastric lesion model; type: in vivo, Male Wistar rats; conditions: indomethacin 5 mg/kg i.p., SC-560 5 mg/kg i.g. or rofecoxib 10 mg/kg i.g.; versus no inhibitor
Protocol: (§1) Male Wistar rats, weighing 180-220 grams were fasted for 24 hours before subjecting to experimentation were employed in all studies. The animals were divided into groups for the following types of induced gastric lesions: ethanol-; aspirin (acetylsalicylic acid; ASA)-; stress-; and ischemia-reperfusion (I/R)-induced gastric lesions. In the first group, gastric lesions were produced by intragastric (i.g.) application of ethanol (75%), in the second group by i.g. application of acidified ASA (125 mg/kg), in the third group by animal exposure to 3.5 hours of water immersion (and restraint stress (WRS), in the fourth group by ischemia (by clamping celiac artery for 30 minutes followed by release of the clamp (reperfusion for 3 hours) (I/R).
(§2) The following experiments were designed to assess the therapeutic effect of 1-MNA on induced gastric lesions. […]
(§3) To assess gastric blood flow (GBF) laser Doppler flowmeter (Laserflo, model BPM 403A, Blood Perfusion Monitor, Vasamedics, St. Paul, Minn., USA) was used. […] Blood flow was measured on anterior and posterior wall of stomach. The mean values of these measurements were calculated and expressed as percent change from value recorded in the intact mucosa.
To establish the number and area of gastric lesions, computerized planimetry (Morphomat, Carl Zeiss, Berlin, Germany) was used. Results are expressed as mm.

[2] = system: WRS-induced gastric lesions; assay: Water immersion and restraint stress (WRS)-induced gastric lesion model; type: in vivo, Male Wistar rats; conditions: indomethacin 5 mg/kg i.p., SC-560 5 mg/kg i.g. or rofecoxib 10 mg/kg i.g.; versus absence of inhibitor
Protocol: as §1, §2, §3
To establish the number and area of gastric lesions, computerized planimetry (Morphomat, Carl Zeiss, Berlin, Germany) was used. Results are expressed as mm. […]

Compound: COc1ccc(-n2nc(C(F)(F)F)cc2-c2ccc(Cl)cc2)cc1 [SC-560]
- number of lesions after COX inhibitor pretreatment in the absence of 1-MNA [1]: increased the number of lesions
- lesion numbers after COX inhibitor pretreatment before 1-MNA and WRS [2]: increase of lesion numbers
